Reference: paper PMC3156801
These are yes or no findings as the source states them, for the method shown. Binding seen in cells or lysates may run through a third protein. Binding can be weak; no strength is given. Where a sequence is shown, tags or fusion partners need not be part of it.

Target: Potorous tridactylus CPD photolyase (Potorous tridactylus)
Experiment: co-IP; PtCPD-PL precipitated with anti-PtCPD-PL antibodies from HEK293T cells transiently expressing PtCPD-PL with Flag-Clock or Flag-Bmal1; immunoblot with anti-FLAG and anti-PtCPD-PL antibodies

binding: binds
B1: FLAG-CLOCK (protein, UniProt O08785 1-855)
chain: MVFTVSCSKMSSIVDRDDSSIFDGLVEEDDKDKAKRVSRNKSEKKRRDQFNVLIKELGSMLPGNARKMDKSTVLQKSIDFLRKHKETTAQSDASEIRQDWKPTFLSNEEFTQLMLEALDGFFLAIMTDGSIIYVSESVTSLLEHLPSDLVDQSIFNFIPEGEHSEVYKILSTHLLESDSLTPEYLKSKNQLEFCCHMLRGTIDPKEPSTYEYVRFIGNFKSLTSVSTSTHNGFEGTIQRTHRPSYEDRVCFVATVRLATPQFIKEMCTVEEPNEEFTSRHSLEWKFLFLDHRAPPIIGYLPFEVLGTSGYDYYHVDDLENLAKCHEHLMQYGKGKSCYYRFLTKGQQWIWLQTHYYITYHQWNSRPEFIVCTHTVVSYAEVRAERRRELGIEESLPETAADKSQDSGSDNRINTVSLKEALERFDHSPTPSASSRSSRKSSHTAVSDPSSTPTKIPTDTSTPPRQHLPAHEKMTQRRSSFSSQSINSQSVGPSLTQPAMSQAANLPIPQGMSQFQFSAQLGAMQHLKDQLEQRTRMIEANIHRQQEELRKIQEQLQMVHGQGLQMFLQQSNPGLNFGSVQLSSGNSNIQQLTPVNMQGQVVPANQVQSGHISTGQHMIQQQTLQSTSTQQSQQSVMSGHSQQTSLPSQTPSTLTAPLYNTMVISQPAAGSMVQIPSSMPQNSTQSATVTTFTQDRQIRFSQGQQLVTKLVTAPVACGAVMVPSTMLMGQVVTAYPTFATQQQQAQTLSVTQQQQQQQQQPPQQQQQQQQSSQEQQLPSVQQPAQAQLGQPPQQFLQTSRLLHGNPSTQLILSAAFPLQQSTFPPSHHQQHQPQQQQQLPRHRTDSLTDPSKVQPQ
